For three molecules, binding results are on record in publication PMC12608094, “STN1 Shields CTC1 From TRIM32‐Mediated Ubiquitination to Prevent Cellular Aging” (Aging Cell, 2025).

Protein sequences, listed by entry. Tags and fused reporters are not part of them.
UniProt Q13049: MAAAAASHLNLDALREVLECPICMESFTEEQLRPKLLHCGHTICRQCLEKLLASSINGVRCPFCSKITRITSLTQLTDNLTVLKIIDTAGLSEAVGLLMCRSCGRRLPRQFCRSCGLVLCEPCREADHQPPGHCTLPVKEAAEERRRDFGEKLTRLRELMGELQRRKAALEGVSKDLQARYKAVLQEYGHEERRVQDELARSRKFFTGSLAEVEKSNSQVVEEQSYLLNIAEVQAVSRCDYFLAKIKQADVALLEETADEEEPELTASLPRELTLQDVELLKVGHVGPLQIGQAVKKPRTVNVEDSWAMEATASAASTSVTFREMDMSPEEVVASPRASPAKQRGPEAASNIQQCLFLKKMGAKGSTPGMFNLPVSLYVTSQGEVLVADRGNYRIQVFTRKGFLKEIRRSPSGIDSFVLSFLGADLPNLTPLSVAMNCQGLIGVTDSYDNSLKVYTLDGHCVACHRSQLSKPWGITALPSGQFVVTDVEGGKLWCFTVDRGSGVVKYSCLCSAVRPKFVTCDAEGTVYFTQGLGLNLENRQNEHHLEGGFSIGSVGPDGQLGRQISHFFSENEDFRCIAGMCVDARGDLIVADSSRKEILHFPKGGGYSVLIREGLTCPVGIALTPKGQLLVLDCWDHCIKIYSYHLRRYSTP

No constants are given. Whether binding was seen depends on the method and setting. Binding seen in cells or lysates may run through a third protein. Some binding calls cover weakened binding; strength is not graded here. Tags and fused reporters may be left off the sequences shown.

Assay [1] has as its target GST-tagged TRIM32 expressed in HEK293T cells (human) (UniProt Q13049). In words: pull-down; GST pull-down from HEK293T cell lysates with Glutathione-sepharose beads; GST-TRIM32 with WT or 1196Δ7 Flag-CTC1, with or without HA-STN1.
Assay [2] deals with GST-tagged TRIM32 from E. coli (human) (UniProt Q13049). In words: pull-down; GST-TRIM32 from E. coli held on Glutathione-sepharose beads, washed, added to lysate of Sf9 cells expressing Flag-CTC1, 4 h at 4°C; Western blot; only the target purified. A general note: Immunoblotting shows a protein as a band on a membrane.

B1: Flag-tagged CTC1 1196Δ7 (protein, UniProt Q2NKJ3)
chain: MAAGRAQVPSSEQAWLEDAQVFIQKTLCPAVKEPNVQLTPLVIDCVKTVWLSQGRNQGSTLPLSYSFVSVQDLKTHQRLPCCSHLSWSSSAYQAWAQEAGPNGNPLPREQLLLLGTLTDLSADLEQECRNGSLYVRDNTGVLSCELIDLDLSWLGHLFLFPRWSYLPPARWNSSGEGHLELWDAPVPVFPLTISPGPVTPIPVLYPESASCLLRLRNKLRGVQRNLAGSLVRLSALVKSKQKAYFILSLGRSHPAVTHVSIIVQVPAQLVWHRALRPGTAYVLTELRVSKIRGQRQHVWMTSQSSRLLLLKPECVQELELELEGPLLEADPKPLPMPSNSEDKKDPESLVRYSRLLSYSGAVTGVLNEPAGLYELDGQLGLCLAYQQFRGLRRVMRPGVCLQLQDVHLLQSVGGGTRRPVLAPCLRGAVLLQSFSRQKPGAHSSRQAYGASLYEQLVWERQLGLPLYLWATKALEELACKLCPHVLRHHQFLQHSSPGSPSLGLQLLAPTLDLLAPPGSPVRNAHNEILEEPHHCPLQKYTRLQTPSSFPTLATLKEEGQRKAWASFDPKALLPLPEASYLPSCQLNRRLAWSWLCLLPSAFCPAQVLLGVLVASSHKGCLQLRDQSGSLPCLLLAKHSQPLSDPRLIGCLVRAERFQLIVERDVRSSFPSWKELSMPGFIQKQQARVYVQFFLADALILPVPRPCLHSATPSTPQTDPTGPEGPHLGQSRLFLLCHKEALMKRNFCVPPGASPEVPKPALSFYVLGSWLGGTQRKEGTGWGLPEPQGNDDNDQKVHLIFFGSSVRWFEFLHPGQVYRLIAPGPATPMLFEKDGSSCISRRPLELAGCASCLTVQDNWTLELESSQDIQDVLDANKSLPESSLTDLLSDNFTDSLVSFSAEILSRTLCEPLVASLWMKLGNTGAMRRCVKLTVALETAECEFPPHLDVYIEDPHLPPSLGLLPGARVHFSQLEKRVSRSHNVYCCFRSSTYVQVLSFPPETTISIPLPHIYLAELLQGGQSPFQATASCHIVSVFSLQLFWVCAYCTSICRQGKCTRLGSTCPTQTAISQAIIRLLVEDGTAEAVVTCRNHHVAAALGLCPREWASLLDFVQVPGRVVLQFAGPGAQLESSARVDEPMTMFLWTLCTSPSVLRPIVLSFELERKPSKIVPLEPPRLQRFQCGELPFLTHVNPRLRESEYSSSLGILASSC
As for B1, in assay [1], the binding entry is “binds”.

B2: Flag-tagged CTC1 (wild type) (protein, UniProt Q2NKJ3 1-1217)
chain: MAAGRAQVPSSEQAWLEDAQVFIQKTLCPAVKEPNVQLTPLVIDCVKTVWLSQGRNQGSTLPLSYSFVSVQDLKTHQRLPCCSHLSWSSSAYQAWAQEAGPNGNPLPREQLLLLGTLTDLSADLEQECRNGSLYVRDNTGVLSCELIDLDLSWLGHLFLFPRWSYLPPARWNSSGEGHLELWDAPVPVFPLTISPGPVTPIPVLYPESASCLLRLRNKLRGVQRNLAGSLVRLSALVKSKQKAYFILSLGRSHPAVTHVSIIVQVPAQLVWHRALRPGTAYVLTELRVSKIRGQRQHVWMTSQSSRLLLLKPECVQELELELEGPLLEADPKPLPMPSNSEDKKDPESLVRYSRLLSYSGAVTGVLNEPAGLYELDGQLGLCLAYQQFRGLRRVMRPGVCLQLQDVHLLQSVGGGTRRPVLAPCLRGAVLLQSFSRQKPGAHSSRQAYGASLYEQLVWERQLGLPLYLWATKALEELACKLCPHVLRHHQFLQHSSPGSPSLGLQLLAPTLDLLAPPGSPVRNAHNEILEEPHHCPLQKYTRLQTPSSFPTLATLKEEGQRKAWASFDPKALLPLPEASYLPSCQLNRRLAWSWLCLLPSAFCPAQVLLGVLVASSHKGCLQLRDQSGSLPCLLLAKHSQPLSDPRLIGCLVRAERFQLIVERDVRSSFPSWKELSMPGFIQKQQARVYVQFFLADALILPVPRPCLHSATPSTPQTDPTGPEGPHLGQSRLFLLCHKEALMKRNFCVPPGASPEVPKPALSFYVLGSWLGGTQRKEGTGWGLPEPQGNDDNDQKVHLIFFGSSVRWFEFLHPGQVYRLIAPGPATPMLFEKDGSSCISRRPLELAGCASCLTVQDNWTLELESSQDIQDVLDANKSLPESSLTDLLSDNFTDSLVSFSAEILSRTLCEPLVASLWMKLGNTGAMRRCVKLTVALETAECEFPPHLDVYIEDPHLPPSLGLLPGARVHFSQLEKRVSRSHNVYCCFRSSTYVQVLSFPPETTISIPLPHIYLAELLQGGQSPFQATASCHIVSVFSLQLFWVCAYCTSICRQGKCTRLGSTCPTQTAISQAIIRLLVEDGTAEAVVTCRNHHVAAALGLCPREWASLLDFVQVPGRVVLQFAGPGAQLESSARVDEPMTMFLWTLCTSPSVLRPIVLSFELERKPSKIVPLEPPRLQRFQCGELPFLTHVNPRLRLSCLSIRESEYSSSLGILASSC
For the molecule B2, the binding entry in assay [1] is reported as “binds”.

B3: Flag-tagged CTC1 expressed in Sf9 cells (protein, UniProt Q2NKJ3 1-1217)
chain: MAAGRAQVPSSEQAWLEDAQVFIQKTLCPAVKEPNVQLTPLVIDCVKTVWLSQGRNQGSTLPLSYSFVSVQDLKTHQRLPCCSHLSWSSSAYQAWAQEAGPNGNPLPREQLLLLGTLTDLSADLEQECRNGSLYVRDNTGVLSCELIDLDLSWLGHLFLFPRWSYLPPARWNSSGEGHLELWDAPVPVFPLTISPGPVTPIPVLYPESASCLLRLRNKLRGVQRNLAGSLVRLSALVKSKQKAYFILSLGRSHPAVTHVSIIVQVPAQLVWHRALRPGTAYVLTELRVSKIRGQRQHVWMTSQSSRLLLLKPECVQELELELEGPLLEADPKPLPMPSNSEDKKDPESLVRYSRLLSYSGAVTGVLNEPAGLYELDGQLGLCLAYQQFRGLRRVMRPGVCLQLQDVHLLQSVGGGTRRPVLAPCLRGAVLLQSFSRQKPGAHSSRQAYGASLYEQLVWERQLGLPLYLWATKALEELACKLCPHVLRHHQFLQHSSPGSPSLGLQLLAPTLDLLAPPGSPVRNAHNEILEEPHHCPLQKYTRLQTPSSFPTLATLKEEGQRKAWASFDPKALLPLPEASYLPSCQLNRRLAWSWLCLLPSAFCPAQVLLGVLVASSHKGCLQLRDQSGSLPCLLLAKHSQPLSDPRLIGCLVRAERFQLIVERDVRSSFPSWKELSMPGFIQKQQARVYVQFFLADALILPVPRPCLHSATPSTPQTDPTGPEGPHLGQSRLFLLCHKEALMKRNFCVPPGASPEVPKPALSFYVLGSWLGGTQRKEGTGWGLPEPQGNDDNDQKVHLIFFGSSVRWFEFLHPGQVYRLIAPGPATPMLFEKDGSSCISRRPLELAGCASCLTVQDNWTLELESSQDIQDVLDANKSLPESSLTDLLSDNFTDSLVSFSAEILSRTLCEPLVASLWMKLGNTGAMRRCVKLTVALETAECEFPPHLDVYIEDPHLPPSLGLLPGARVHFSQLEKRVSRSHNVYCCFRSSTYVQVLSFPPETTISIPLPHIYLAELLQGGQSPFQATASCHIVSVFSLQLFWVCAYCTSICRQGKCTRLGSTCPTQTAISQAIIRLLVEDGTAEAVVTCRNHHVAAALGLCPREWASLLDFVQVPGRVVLQFAGPGAQLESSARVDEPMTMFLWTLCTSPSVLRPIVLSFELERKPSKIVPLEPPRLQRFQCGELPFLTHVNPRLRLSCLSIRESEYSSSLGILASSC
On to B3, for which the binding result in assay [2] is “binds”.
